Measurements published in article PMC12218279.
Results are given in words; binding and its absence hold for the method and conditions named. Binding seen in cells or lysates may run through a third protein. For part of these data: Where a sequence is shown, tags or fusion partners need not be part of it.

Chains of the proteins cited; added tags and fusions are not shown.
UniProt C6KT37: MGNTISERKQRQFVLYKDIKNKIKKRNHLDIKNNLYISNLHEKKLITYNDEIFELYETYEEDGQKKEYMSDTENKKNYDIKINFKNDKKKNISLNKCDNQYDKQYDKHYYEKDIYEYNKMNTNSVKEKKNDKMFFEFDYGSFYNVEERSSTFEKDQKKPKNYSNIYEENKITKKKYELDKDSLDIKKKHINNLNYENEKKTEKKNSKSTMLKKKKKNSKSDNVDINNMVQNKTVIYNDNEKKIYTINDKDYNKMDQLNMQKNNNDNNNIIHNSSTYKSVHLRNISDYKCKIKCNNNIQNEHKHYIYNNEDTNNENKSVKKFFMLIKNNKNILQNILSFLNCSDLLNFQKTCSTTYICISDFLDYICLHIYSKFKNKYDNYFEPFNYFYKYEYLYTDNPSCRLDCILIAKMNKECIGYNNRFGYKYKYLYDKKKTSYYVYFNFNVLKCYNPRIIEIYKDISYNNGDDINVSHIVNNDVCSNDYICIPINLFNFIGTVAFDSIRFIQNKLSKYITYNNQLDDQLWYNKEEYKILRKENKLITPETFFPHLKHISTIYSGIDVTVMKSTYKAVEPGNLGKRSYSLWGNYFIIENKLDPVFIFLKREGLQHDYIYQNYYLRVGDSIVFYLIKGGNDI

T1: PfMCM4-Flag (P. falciparum) (UniProt Q8IEE5)
T1 sequence: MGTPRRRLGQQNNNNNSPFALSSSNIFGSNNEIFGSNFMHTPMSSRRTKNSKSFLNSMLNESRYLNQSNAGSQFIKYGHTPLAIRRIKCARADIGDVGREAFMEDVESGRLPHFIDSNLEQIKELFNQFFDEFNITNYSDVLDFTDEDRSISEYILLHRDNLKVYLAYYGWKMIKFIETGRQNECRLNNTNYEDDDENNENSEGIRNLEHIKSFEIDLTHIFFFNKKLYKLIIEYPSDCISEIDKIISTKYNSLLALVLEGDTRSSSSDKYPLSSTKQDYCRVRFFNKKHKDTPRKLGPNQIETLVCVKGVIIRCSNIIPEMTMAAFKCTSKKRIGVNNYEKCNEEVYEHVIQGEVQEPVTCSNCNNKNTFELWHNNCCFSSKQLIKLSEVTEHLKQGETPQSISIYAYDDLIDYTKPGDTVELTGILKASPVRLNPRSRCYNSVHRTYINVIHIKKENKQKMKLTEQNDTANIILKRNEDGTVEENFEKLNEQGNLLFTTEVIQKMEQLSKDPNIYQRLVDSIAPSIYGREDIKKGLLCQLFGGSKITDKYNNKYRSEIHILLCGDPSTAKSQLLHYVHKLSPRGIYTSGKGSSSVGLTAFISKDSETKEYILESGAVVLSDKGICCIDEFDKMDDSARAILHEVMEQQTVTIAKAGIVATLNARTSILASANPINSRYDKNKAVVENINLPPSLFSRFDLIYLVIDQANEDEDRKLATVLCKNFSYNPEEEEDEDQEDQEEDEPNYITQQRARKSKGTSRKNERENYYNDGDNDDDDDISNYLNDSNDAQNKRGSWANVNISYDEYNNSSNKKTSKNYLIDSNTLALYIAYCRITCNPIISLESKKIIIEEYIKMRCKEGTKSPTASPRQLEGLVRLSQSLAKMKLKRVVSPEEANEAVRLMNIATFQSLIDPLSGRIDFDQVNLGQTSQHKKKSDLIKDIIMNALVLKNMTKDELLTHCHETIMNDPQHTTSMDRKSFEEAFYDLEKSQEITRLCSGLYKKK

B1: PfSKP1-HA (protein, UniProt Q8ID38 1-162)
chain: MKNDKIKLVSFEGDEFIVDKNTASMSTVIMNILEVMTAEEDTIPLPNIKTPILKKIIEYMEYHINNPADEIPKPLITSNLQDVVSSWDFDFVNTDKETLYELIEASNYLDIKPLLDLTCGKIASMMKDKTTEEIRAEFDIVNDFTREEEKQIREENRWCGDI
B2: PfRBX1-HA (protein, UniProt O77367 1-107)
chain: MADNITNDKRDIFKIHKWSAVAAWSWDISVDNCAICRNHIMDLCIECQAKTTDHENDKDKKIDKEGCTVAWGVCNHAFHLHCISRWIKARQVCPLDNTTWEFQKATD

Experiments:
[1] = target: PfFBOX01-HA (P. falciparum) (UniProt C6KT37); assay: co-IP; immunoprecipitation of PfFBOX01-HA from schizonts that also carry a C-terminally FLAG-tagged candidate substrate; immunoblot (Fig. S5 and S13)
[2] = target: T1, PfMCM4-Flag (P. falciparum); assay: co-IP; anti-Flag immunoprecipitation of MCM4-Flag from DiCre-PfSKP1-HA + MCM4-Flag or DiCre-PfRBX1-HA + MCM4-Flag schizonts pre-treated with DMSO or 10 nM rapamycin; immunoblot with anti-Flag, anti-ubiquitin and anti-HA

Row | Molecule | binding [1] | binding [2]
1 | PF3D7_1423300 (protein phosphatase 7) tagged at the C-terminus with FLAG epitopes (from UniProt Q8ILL9 1-959) (enzyme) | no binding | 
2 | B1 |  | no binding
3 | B2 |  | no binding
